# Data taken from the odorant receptor screen of Mainland et al. (2015).
# Chains of the proteins cited; added tags and fusions are not shown. A line that says so, or that is headed by a name, gives the form on record, which may keep a tag or linker.
# OR11H13, as listed by the source: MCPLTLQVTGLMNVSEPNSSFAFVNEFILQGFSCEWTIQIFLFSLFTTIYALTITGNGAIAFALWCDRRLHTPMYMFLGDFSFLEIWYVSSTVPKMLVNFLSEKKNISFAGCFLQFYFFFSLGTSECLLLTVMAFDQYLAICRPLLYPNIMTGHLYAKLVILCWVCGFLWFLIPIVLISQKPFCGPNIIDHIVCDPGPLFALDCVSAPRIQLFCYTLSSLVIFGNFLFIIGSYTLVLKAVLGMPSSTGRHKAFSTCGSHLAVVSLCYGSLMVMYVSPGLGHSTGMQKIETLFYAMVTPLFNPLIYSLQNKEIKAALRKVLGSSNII
# “And” between values parts separate entries of the source, which are not always exact repeats. Equal entries are not always repeated. This is one part of the list. Each value is one well over the wells without odorant, computed here; the data are noisy.
# How the values were obtained:
# Assay in all cases: odorant receptor activation (CRE luciferase / Renilla) (fold of no-odor wells); higher = more activation
# Settings in all cases: 100 µM
# [1] = tested on: OR10R2 clone 1400
# [2] = tested on: OR10T2 clone 1032
# [3] = tested on: OR10V1 Q101L/V117A/Q123W clone 1520
# [4] = tested on: OR10W1 R263Q clone 1176
# [5] = tested on: OR10X1 clone 1368
# [6] = tested on: OR10X1 clone 1516
# [7] = tested on: OR10Z1 clone 1026
# [8] = tested on: OR11A1 clone 1062
# [9] = tested on: OR11H1 clone 1558
# [10] = tested on: OR11H12 clone 1302
# [11] = tested on: OR11H13 clone 1435
# [12] = tested on: OR11H4 clone 1263
# [13] = tested on: OR11H4 clone 1423
# [14] = tested on: OR11H6 clone 1275
# [15] = tested on: OR11L1 G108S/F117L/A142T/R171P clone 1031
# [16] = tested on: OR12D2 V47F/L56P/S104F/F113L/L120R/V159I clone 1373
# [17] = tested on: OR12D2 clone 1075
# [18] = tested on: OR12D3 clone 1071
# [19] = tested on: OR13A1 clone 1107
# [20] = tested on: OR13C2 clone 1717
Structure (SMILES),odorant receptor activation [1],odorant receptor activation [2],odorant receptor activation [3],odorant receptor activation [4],odorant receptor activation [5],odorant receptor activation [6],odorant receptor activation [7],odorant receptor activation [8],odorant receptor activation [9],odorant receptor activation [10],odorant receptor activation [11],odorant receptor activation [12],odorant receptor activation [13],odorant receptor activation [14],odorant receptor activation [15],odorant receptor activation [16],odorant receptor activation [17],odorant receptor activation [18],odorant receptor activation [19],odorant receptor activation [20]
CC(C)C(=O)O [isobutyric acid],0.837,0.914,0.791 and 0.7,0.956,1.09,1.44 and 0.99,0.762,0.795,0.709,1.15 and 0.681,0.688,1.1 and 1.11,0.967,0.789 and 0.712,0.693,0.776,0.897,1,1.91,0.98
CC(=O)C(C)=O [diacetyl],1.19,0.959,1.77,1.38,0.95,1.64,1.15,0.895,0.701,1.25,1.38,0.921,1.37,1.16,0.95,1.37,0.959,1.04,1.3,0.804
CCCCCCCOC(C)=O [heptyl acetate],0.89,1.01,0.841 and 1.08,0.985,1.23,1.17 and 1.24,0.994,1.33,0.84,1.06 and 0.821,0.774,0.956 and 1.09,1.3,0.733 and 1.02,0.721,0.944,1.24,0.617,1.55,0.998
CCCCCCCCCC=O [decyl aldehyde],1.32,1.11,1.12,1.16,1.25,1.23,1.08,1.08,0.882,1.4,1.85,1.25,1.6,1.08,1.32,1.58,1.04,1.05,1.06,0.965
CCCCCCCCOC(C)=O [octyl acetate],1.35,1.15,1.01,1.08,1.02,0.87,1,1.13,0.99,1.53,1.07,1.15,0.972,1.2,1.21,0.969,1.14,1.13,1.47,0.656
CC(C)CCC(=O)O [4-methylvaleric acid],0.845,1.82,0.897,0.883,0.878,0.862,2.05,2.06,0.934,1.31,1.78,1.25,1.49,0.965,2.29,0.208,1.18,2.53,10.1,0.863
CCCCCCCCCCC=O [undecanal],0.941,0.712,1.11,0.849,0.673,1.16,0.822,1.29,1.51,0.998,1.3,0.838,0.984,0.962,1.1,0.946,1.35,0.912,0.875,0.796
CCCCCOC(C)=O [n-amyl acetate],0.746,1.51,0.597 and 0.79,0.568,0.992,1.25 and 0.904,1.02,1.1,1.22,0.535,0.977,0.667,0.805,0.878,1.68,0.717,1.45,0.762,1.14,1
"CC1CCC(C(C)C)C(O)C1 (single isomer, unassigned; (-)) [(-)-menthol]",0.364,3.94,2.97,1.11,0.792,3.77,3.43,6.31,1.12,1.17,2.09,0.643,0.676,0.392,3.4,0.146,2.24,4.63,12.1,0.761
CCCC(=O)O [butyric acid],0.16,1.07,1.03,1.07,0.202,1.22,1.12,1.18,0.922,0.951,0.191,0.913,0.139,1.02,1.12,0.22,1.34,1.23,1.15,0.766
C=C(C)C1CC=C(C)C(=O)C1 (stereo not given) [r-carvone],1.05,0.893,0.909,0.985,0.682,0.741,0.841,1.26,0.627,0.924,1.44,0.74,0.991,0.791,0.803,0.97,1.02,0.965,0.958,0.731
CC(=O)OCC=C(C)CCC=C(C)C [geranyl acetate],1.09,1.62,0.644 and 1.51,1.27,1.62,1.16 and 1.71,2.31,2.17,1.29,1.38 and 0.95,0.859,1.14 and 1.67,1.24,0.882 and 1.14,1.06,1.04,2.19,1.04,2.02,1.4
CC(C)CC(=O)O [isovaleric acid],0.937,1.17,0.964,1.13,1.1,0.868,1.05,1.08,0.804,0.937,0.913,0.644,0.768,0.736,1.43,1.29,1.33,1.66,1.81,0.994

# Complete entries from above. Values in the order: odorant receptor activation [1]	odorant receptor activation [2]	odorant receptor activation [3]	odorant receptor activation [4]	odorant receptor activation [5]	odorant receptor activation [6]	odorant receptor activation [7]	odorant receptor activation [8]	odorant receptor activation [9]	odorant receptor activation [10]	odorant receptor activation [11]	odorant receptor activation [12]	odorant receptor activation [13]	odorant receptor activation [14]	odorant receptor activation [15]	odorant receptor activation [16]	odorant receptor activation [17]	odorant receptor activation [18]	odorant receptor activation [19]	odorant receptor activation [20]
# CCCCCCCCCCC=O [undecanal] in the list: 0.941	0.712	1.11	0.849	0.673	1.16	0.822	1.29	1.51	0.998	1.3	0.838	0.984	0.962	1.1	0.946	1.35	0.912	0.875	0.796
# CCCCCCCCCC=O [decyl aldehyde] in the list: 1.32	1.11	1.12	1.16	1.25	1.23	1.08	1.08	0.882	1.4	1.85	1.25	1.6	1.08	1.32	1.58	1.04	1.05	1.06	0.965
